Binding data for 1 substance are collected here from article PMC6856630.

Protein sequences, listed by entry. Tags and fused reporters are not part of them. Lines headed by an entry give the natural chain unless they say otherwise; changes in a name come on top. Chains listed by the source or under a name are the forms on record and can include a tag or linker. Residues count along the entry.
Nrxn1 LNS2^SS2A+, crystallographic construct (Q9CS84, form named): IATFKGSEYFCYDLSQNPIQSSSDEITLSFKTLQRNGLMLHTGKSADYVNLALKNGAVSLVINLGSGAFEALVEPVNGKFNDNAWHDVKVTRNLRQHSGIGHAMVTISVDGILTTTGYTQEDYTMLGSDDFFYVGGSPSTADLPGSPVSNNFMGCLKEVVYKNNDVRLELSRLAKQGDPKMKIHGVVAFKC
Nrxn1 LNS2^SS2− (C293A), crystallographic construct (Q9CS84, form named): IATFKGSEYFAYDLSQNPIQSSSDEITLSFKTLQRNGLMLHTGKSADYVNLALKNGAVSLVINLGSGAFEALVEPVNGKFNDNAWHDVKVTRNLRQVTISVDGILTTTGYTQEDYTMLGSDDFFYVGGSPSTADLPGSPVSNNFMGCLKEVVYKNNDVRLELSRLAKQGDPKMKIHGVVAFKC
Nxph1^3ND (mature rat neurexophilin-1, 118-271, N146D/N156D/N162D) (Q63366, form named): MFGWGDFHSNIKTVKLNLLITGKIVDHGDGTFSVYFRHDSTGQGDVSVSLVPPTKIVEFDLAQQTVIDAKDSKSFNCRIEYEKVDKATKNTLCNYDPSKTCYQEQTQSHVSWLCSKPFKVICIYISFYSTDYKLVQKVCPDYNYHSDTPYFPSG

Assay [1] has as its target Nrxn1 LNS2^SS2A+, crystallographic construct (mouse) (UniProt Q9CS84). As to the kind of experiment: crystal structure; Nxph1^3ND co-expressed and co-purified with LNS2, tags cleaved; 2–3 mg/ml, 16% PEG 3350, 2% Tacsimate pH 5.0, 0.1 M sodium citrate tribasic; no Ca2+; both purified.
In assay [2] the target is Nrxn1 LNS2^SS2− (C293A), crystallographic construct (mouse) (UniProt Q9CS84). The description is as above.

No constants are given. Whether binding was seen depends on the method and setting. Some binding calls cover weakened binding; strength is not graded here.

Turning to “Nxph1^3ND (mature rat neurexophilin-1, 118-271, N146D/N156D/N162D) (from UniProt Q63366 118-271) (ligand)”, the binding entry in assay [1] and in assay [2] was “binds” in each case.
